Test results reported in PMC10908827, “Structural insight into an Arl1–ArfGEF complex involved in Golgi recruitment of a GRIP-domain golgin” (Nature Communications, 2024).
No constants are given. Whether binding was seen depends on the method and setting. Binding seen in cells or lysates may run through a third protein. Some binding calls cover weakened binding; strength is not graded here. Where a sequence is shown, tags or fusion partners need not be part of it.

Experiments:
[1] = target: T1, 3xFLAG tagged Gea2 P71A (S. cerevisiae) (UniProt P39993); assay: co-IP; Gea2-3xFLAG and Arl1-3xHA co-expressed in gea2∆arl1∆ yeast; lysate (20 mM HEPES pH 7.2, 100 mM KCl, 5 mM MgCl2, 1% Triton X-100, 5 mM EDTA, 10% glycerol) on anti-FLAG M2 magnetic beads overnight at 4 °C; anti-HA blot
T1 sequence: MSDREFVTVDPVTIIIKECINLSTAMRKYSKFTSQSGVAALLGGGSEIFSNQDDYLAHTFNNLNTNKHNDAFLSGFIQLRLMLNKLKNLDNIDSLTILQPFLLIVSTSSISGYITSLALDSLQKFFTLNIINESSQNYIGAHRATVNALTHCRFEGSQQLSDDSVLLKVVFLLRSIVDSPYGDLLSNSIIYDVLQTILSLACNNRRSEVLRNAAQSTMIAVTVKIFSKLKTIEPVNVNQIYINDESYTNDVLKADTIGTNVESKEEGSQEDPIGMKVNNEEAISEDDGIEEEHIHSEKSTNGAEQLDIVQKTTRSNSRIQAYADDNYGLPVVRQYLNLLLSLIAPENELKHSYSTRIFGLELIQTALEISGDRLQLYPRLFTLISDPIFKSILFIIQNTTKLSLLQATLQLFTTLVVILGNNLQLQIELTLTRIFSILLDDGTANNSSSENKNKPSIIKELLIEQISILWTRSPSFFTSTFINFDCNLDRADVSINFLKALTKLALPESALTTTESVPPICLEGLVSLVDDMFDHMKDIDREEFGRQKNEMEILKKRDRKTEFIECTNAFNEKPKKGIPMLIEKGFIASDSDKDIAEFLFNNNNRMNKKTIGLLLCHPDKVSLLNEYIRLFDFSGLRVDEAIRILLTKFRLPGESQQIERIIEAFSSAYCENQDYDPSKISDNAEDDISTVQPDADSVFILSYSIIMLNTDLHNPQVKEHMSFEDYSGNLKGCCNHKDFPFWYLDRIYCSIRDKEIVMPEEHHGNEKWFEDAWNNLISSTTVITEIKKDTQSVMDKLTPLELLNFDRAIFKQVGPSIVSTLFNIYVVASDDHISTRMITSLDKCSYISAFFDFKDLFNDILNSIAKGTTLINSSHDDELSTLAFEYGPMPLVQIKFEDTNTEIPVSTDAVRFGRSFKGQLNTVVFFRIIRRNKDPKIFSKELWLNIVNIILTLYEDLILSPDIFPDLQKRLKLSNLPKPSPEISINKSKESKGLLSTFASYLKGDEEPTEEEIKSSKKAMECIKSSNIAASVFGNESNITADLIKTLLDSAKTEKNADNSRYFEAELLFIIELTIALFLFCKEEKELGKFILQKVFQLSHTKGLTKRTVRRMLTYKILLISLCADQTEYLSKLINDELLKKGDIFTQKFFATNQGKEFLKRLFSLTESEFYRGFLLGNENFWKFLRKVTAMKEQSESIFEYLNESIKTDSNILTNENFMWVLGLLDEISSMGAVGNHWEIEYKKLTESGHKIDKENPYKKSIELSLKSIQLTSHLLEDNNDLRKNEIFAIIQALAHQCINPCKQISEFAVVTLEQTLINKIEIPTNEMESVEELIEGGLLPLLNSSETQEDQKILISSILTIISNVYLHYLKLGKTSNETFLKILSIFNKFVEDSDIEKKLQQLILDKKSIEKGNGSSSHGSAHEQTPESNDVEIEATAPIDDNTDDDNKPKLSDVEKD

[2] = target: T2, 3xFLAG tagged Gea2 L79A (S. cerevisiae) (UniProt P39993); assay: as above
T2 sequence: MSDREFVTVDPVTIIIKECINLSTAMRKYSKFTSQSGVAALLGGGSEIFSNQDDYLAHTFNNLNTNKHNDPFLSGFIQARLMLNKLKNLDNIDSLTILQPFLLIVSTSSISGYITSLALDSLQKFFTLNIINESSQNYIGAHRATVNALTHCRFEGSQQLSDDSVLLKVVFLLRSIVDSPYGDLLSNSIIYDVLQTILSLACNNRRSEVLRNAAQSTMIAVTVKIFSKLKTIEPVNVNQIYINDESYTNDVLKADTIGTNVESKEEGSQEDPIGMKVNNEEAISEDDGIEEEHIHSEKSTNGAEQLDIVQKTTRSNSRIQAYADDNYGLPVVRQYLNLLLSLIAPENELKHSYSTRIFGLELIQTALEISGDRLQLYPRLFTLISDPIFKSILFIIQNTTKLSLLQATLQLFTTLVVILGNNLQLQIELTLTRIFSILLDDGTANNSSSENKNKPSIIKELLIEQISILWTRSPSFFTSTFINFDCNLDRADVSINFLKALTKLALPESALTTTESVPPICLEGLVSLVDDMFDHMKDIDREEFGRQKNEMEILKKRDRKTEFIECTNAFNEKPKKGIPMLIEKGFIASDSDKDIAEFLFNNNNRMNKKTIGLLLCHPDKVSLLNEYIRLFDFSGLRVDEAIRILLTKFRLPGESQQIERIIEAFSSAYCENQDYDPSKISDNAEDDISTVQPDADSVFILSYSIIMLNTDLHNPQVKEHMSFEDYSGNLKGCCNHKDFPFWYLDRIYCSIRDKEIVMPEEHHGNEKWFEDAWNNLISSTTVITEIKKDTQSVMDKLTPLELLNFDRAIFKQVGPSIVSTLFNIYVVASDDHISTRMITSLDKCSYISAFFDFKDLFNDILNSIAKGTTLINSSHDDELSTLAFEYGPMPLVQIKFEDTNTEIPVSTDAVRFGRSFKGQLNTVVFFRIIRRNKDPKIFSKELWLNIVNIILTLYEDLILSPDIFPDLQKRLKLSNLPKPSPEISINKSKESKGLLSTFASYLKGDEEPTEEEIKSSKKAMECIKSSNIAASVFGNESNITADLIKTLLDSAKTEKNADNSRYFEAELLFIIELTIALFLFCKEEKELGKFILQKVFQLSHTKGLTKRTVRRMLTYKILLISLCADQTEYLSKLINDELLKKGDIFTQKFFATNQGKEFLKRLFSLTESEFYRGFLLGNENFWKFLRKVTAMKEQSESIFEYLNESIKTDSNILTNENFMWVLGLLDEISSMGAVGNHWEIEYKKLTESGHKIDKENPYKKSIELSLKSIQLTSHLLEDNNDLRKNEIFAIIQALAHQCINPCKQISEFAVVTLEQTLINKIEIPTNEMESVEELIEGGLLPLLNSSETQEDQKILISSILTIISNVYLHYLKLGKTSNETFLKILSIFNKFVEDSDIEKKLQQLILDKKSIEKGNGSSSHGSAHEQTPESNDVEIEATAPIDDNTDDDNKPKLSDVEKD

B1: 3xHA tagged WT Arl1 (protein, UniProt P38116 1-183)
chain: MGNIFSSMFDKLWGSNKELRILILGLDGAGKTTILYRLQIGEVVTTKPTIGFNVETLSYKNLKLNVWDLGGQTSIRPYWRCYYADTAAVIFVVDSTDKDRMSTASKELHLMLQEEELQDAALLVFANKQDQPGALSASEVSKELNLVELKDRSWSIVASSAIKGEGITEGLDWLIDVIKEEQL
B1 was tested, and the binding [1] was “binds” and the binding [2] was “binds”.
